Results are given in words; binding and its absence hold for the method and conditions named. Some binding calls cover weakened binding; strength is not graded here.
How the values were obtained:
[1] = biological target: N-acetylmannosamine kinase domain of UDP-GlcNAc 2-epimerase/N-acetylmannosamine kinase (GNE), residues 406-720 (human) (UniProt Q9Y223); assay: crystal structure; ligand-free form, space group P3(1)21, three molecules in the asymmetric unit; interface analysis with the PISA server; crystals grown with 5 mM ADP and 1:100 chymotrypsin; both purified
[2] = biological target: N-acetylmannosamine kinase domain of UDP-GlcNAc 2-epimerase/N-acetylmannosamine kinase (GNE), residues 406-720 (human) (UniProt Q9Y223); assay: SEC; populations of oligomeric states at different protein concentrations; data not shown; both purified

B1: N-acetylmannosamine kinase domain of UDP-GlcNAc 2-epimerase/N-acetylmannosamine kinase (GNE), residues 406-720 (domain or fragment, human, UniProt Q9Y223 406-720, looked up)
chain: TLSALAVDLGGTNLRVAIVSMKGEIVKKYTQFNPKTYEERINLILQMCVEAAAEAVKLNCRILGVGISTGGRVNPREGIVLHSTKLIQEWNSVDLRTPLSDTLHLPVWVDNDGNCAALAERKFGQGKGLENFVTLITGTGIGGGIIHQHELIHGSSFCAAELGHLVVSLDGPDCSCGSHGCIEAYASGMALQREAKKLHDEDLLLVEGMSVPKDEAVGALHLIQAAKLGNAKAQSILRTAGTALGLGVVNILHTMNPSLVILSGVLASHYIHIVKDVIRQQALSSVQDVDVVVSDLVDPALLGAASMVLDYTTRR
notes: UDP-GlcNAc 2-epimerase/N-acetylmannosamine kinase (GNE), human, kinase domain, residues 406-720; cDNA codon optimized for E. coli and synthesized; Cloned into pET28-MHL (gi:134105571); For crystallization 1:100 chymotrypsin (w/w) and 5 mM ADP were added to the protein stock, so the crystallized chain may be trimmed; residues 475-498 are not seen in the electron density; A …
Question: For B1, which binding [1] is on record?
Answer: binds

Question: And the binding [2]?
Answer: binds
